How the values were obtained:
[1] = system: hTERT-MSC and HEK293 cells; experiment: Transient expression of different GLP-1 constructs (active GLP-1); format: cell-based, human; details: transient transfection; both in hTERT-MSC and in HEK293 cells
hTERT-MSC cells = experiment: GLP-1 expression of stably transfected hTERT-MSC cell clones; format: cell-based, human; details: hTERT-MSC cell clones stably expressing GLP-1

Substance	active GLP-1 level after transient expression [1]	active GLP per 10^6 cells and hour (hTERT-MSC cells) [pmol]
GLP1(7-37)-IP2-GLP1(7-37) [#217 GLP1(7-37)-IP2-GLP1(7-37)]	enormous gain in expression	2.7
GLP-1 (7-37) [#103 GLP1(7-37)]	only marginal active GLP-1 level	0.4

From patent publication US20120263794A1, “TREATMENT OF EYE DISEASES USING ENCAPSULATED CELLS ENCODING AND SECRETING A NEUROPROTECTIVE FACTOR AND/OR AN ANTI-ANGIOGENIC FACTOR” (BIOCOMPATIBLE UK LTD., priority 2009, published 2012)
